According to PMC12391444:

Target: HA-tagged transforming acidic coiled-coil-containing protein 3 (TACC3) (UniProt Q9Y6A5)
Assay: affinity purification with mass spectrometry; co-IP of HA-tagged TACC3 from transfected cells coupled with LC-MS

binding: binds
Substance: poly(A)-binding protein cytoplasmic 1 (PABPC1), endogenous (from UniProt P11940 1-636)

These are yes or no findings as the source states them, for the method shown. Binding seen in cells or lysates may run through a third protein. A yes stands for co-enrichment or nearness to the bait. Other partners may have been found.
